These are yes or no findings as the source states them, for the method shown. In cells and extracts the contact can be indirect. Some results given as binding are weak or reduced against the parent protein; the word gives no strength.

Sequences of proteins named here, by UniProt entry; tags and fusion partners are left off. Residues count along the entry.
UniProt Q6PHU5, residues 74-825: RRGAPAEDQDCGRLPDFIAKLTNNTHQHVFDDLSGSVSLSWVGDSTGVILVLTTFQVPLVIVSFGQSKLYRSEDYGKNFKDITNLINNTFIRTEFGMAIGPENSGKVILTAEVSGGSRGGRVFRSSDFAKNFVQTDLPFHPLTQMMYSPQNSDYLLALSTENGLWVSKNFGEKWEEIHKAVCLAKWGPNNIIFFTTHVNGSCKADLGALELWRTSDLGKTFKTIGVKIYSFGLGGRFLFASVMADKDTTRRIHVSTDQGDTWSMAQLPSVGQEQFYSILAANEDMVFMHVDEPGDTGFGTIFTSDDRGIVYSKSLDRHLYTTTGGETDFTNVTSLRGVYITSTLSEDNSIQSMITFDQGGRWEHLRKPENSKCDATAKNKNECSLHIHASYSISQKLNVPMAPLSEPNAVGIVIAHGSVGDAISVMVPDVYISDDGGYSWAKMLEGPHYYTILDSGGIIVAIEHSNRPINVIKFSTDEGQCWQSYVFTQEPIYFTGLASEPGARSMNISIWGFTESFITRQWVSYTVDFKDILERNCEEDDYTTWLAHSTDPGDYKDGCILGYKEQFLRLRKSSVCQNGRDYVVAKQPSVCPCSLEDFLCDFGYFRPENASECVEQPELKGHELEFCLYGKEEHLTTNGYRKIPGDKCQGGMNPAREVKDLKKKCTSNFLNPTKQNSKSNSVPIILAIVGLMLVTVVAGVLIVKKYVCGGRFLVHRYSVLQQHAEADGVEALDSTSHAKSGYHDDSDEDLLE
UniProt Q6VNS1, residues 32-825: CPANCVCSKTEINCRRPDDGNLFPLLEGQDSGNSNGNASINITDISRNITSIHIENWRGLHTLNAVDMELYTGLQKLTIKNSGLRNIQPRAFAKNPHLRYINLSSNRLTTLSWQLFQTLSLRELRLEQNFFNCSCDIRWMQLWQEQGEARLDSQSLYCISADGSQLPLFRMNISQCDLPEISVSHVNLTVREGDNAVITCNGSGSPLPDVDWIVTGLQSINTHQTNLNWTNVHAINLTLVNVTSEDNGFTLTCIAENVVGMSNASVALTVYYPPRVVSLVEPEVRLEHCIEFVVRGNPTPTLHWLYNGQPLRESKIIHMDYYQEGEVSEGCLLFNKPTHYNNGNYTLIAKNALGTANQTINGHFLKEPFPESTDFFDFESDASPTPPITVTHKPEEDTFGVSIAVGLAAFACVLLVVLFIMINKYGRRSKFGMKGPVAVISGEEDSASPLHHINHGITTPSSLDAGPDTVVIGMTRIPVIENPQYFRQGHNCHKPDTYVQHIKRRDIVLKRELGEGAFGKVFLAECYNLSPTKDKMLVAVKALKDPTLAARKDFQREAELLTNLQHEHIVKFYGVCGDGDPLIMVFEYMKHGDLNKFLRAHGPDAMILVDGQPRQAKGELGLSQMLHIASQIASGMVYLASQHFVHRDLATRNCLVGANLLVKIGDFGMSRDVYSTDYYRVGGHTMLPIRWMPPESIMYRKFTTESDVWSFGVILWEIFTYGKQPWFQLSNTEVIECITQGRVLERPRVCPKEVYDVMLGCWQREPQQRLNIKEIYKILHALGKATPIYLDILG
UniProt O88307, residues 82-2215: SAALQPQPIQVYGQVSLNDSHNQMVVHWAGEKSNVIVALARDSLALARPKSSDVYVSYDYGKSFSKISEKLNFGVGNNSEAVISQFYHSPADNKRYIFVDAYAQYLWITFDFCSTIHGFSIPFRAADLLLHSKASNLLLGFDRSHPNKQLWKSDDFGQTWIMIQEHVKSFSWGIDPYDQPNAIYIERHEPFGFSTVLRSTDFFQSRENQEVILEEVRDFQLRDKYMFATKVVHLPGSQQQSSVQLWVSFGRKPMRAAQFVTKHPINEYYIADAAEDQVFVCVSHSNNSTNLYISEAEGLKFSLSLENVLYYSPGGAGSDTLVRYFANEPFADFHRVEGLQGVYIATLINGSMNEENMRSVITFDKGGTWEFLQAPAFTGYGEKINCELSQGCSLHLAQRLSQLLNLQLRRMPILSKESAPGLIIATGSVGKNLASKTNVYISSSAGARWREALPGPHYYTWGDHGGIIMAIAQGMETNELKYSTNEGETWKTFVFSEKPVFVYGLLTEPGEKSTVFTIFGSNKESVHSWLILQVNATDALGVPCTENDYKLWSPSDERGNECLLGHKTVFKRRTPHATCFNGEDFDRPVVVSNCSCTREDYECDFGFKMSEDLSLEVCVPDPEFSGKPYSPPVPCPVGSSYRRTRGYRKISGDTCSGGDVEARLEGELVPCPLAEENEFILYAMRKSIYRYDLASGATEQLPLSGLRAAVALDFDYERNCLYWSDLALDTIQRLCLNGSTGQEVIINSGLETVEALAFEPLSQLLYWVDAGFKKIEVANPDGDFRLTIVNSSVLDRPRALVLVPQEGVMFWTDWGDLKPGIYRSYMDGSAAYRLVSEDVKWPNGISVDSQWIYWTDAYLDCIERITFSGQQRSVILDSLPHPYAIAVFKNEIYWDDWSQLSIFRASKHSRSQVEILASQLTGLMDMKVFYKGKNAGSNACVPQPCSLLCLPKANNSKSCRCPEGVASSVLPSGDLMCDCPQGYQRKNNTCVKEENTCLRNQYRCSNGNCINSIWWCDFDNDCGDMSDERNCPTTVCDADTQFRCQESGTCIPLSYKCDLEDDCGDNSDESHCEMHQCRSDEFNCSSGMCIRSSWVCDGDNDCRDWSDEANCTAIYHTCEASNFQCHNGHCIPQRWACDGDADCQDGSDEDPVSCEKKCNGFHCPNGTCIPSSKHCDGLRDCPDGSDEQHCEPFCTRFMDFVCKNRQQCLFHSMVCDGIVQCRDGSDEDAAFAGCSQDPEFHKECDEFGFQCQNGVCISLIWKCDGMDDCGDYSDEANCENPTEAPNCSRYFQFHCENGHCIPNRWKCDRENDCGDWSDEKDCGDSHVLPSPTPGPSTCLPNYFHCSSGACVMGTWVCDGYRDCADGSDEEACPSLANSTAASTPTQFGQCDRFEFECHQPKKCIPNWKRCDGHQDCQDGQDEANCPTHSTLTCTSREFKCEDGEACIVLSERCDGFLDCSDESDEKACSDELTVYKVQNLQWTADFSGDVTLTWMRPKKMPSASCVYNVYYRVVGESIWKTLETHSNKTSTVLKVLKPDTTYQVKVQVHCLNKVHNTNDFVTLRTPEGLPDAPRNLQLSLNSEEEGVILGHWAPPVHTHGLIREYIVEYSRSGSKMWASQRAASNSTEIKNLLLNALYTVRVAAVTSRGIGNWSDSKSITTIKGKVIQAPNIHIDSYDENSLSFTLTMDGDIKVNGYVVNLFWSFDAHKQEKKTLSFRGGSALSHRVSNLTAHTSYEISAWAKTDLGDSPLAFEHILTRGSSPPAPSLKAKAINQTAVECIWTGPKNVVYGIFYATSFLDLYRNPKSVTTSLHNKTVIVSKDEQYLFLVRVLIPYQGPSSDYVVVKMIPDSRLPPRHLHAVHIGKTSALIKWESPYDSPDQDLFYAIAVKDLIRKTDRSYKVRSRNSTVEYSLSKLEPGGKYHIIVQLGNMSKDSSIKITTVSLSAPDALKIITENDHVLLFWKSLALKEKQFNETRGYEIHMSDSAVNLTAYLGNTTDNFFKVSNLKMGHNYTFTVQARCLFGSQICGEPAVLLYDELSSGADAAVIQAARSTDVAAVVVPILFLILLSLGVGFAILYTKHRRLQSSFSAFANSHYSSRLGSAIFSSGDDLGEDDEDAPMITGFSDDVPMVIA
UniProt P15209, residues 32-821: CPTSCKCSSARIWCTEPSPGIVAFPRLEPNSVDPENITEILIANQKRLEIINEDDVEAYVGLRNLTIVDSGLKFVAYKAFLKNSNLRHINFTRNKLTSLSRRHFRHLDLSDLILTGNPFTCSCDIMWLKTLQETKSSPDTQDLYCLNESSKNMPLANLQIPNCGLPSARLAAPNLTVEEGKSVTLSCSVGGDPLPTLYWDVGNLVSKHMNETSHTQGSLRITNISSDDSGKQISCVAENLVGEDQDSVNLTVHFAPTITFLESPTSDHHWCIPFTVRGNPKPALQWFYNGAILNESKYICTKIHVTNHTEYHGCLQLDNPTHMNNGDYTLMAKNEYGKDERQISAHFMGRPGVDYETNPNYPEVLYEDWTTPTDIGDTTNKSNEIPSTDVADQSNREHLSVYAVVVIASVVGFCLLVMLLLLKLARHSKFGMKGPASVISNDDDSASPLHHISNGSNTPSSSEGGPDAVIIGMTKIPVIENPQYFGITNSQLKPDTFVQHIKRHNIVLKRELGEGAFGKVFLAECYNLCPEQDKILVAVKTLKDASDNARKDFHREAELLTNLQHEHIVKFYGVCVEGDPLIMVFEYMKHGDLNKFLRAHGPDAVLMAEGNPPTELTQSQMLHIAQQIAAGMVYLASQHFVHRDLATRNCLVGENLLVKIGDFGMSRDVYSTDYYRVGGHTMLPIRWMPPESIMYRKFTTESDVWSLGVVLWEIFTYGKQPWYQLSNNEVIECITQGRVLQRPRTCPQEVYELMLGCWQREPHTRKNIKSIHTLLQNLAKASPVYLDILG

The target in experiment [1] is T1, ARHGAP33 (mouse (endogenous in hippocampus)) (UniProt Q80YF9).
T1 sequence: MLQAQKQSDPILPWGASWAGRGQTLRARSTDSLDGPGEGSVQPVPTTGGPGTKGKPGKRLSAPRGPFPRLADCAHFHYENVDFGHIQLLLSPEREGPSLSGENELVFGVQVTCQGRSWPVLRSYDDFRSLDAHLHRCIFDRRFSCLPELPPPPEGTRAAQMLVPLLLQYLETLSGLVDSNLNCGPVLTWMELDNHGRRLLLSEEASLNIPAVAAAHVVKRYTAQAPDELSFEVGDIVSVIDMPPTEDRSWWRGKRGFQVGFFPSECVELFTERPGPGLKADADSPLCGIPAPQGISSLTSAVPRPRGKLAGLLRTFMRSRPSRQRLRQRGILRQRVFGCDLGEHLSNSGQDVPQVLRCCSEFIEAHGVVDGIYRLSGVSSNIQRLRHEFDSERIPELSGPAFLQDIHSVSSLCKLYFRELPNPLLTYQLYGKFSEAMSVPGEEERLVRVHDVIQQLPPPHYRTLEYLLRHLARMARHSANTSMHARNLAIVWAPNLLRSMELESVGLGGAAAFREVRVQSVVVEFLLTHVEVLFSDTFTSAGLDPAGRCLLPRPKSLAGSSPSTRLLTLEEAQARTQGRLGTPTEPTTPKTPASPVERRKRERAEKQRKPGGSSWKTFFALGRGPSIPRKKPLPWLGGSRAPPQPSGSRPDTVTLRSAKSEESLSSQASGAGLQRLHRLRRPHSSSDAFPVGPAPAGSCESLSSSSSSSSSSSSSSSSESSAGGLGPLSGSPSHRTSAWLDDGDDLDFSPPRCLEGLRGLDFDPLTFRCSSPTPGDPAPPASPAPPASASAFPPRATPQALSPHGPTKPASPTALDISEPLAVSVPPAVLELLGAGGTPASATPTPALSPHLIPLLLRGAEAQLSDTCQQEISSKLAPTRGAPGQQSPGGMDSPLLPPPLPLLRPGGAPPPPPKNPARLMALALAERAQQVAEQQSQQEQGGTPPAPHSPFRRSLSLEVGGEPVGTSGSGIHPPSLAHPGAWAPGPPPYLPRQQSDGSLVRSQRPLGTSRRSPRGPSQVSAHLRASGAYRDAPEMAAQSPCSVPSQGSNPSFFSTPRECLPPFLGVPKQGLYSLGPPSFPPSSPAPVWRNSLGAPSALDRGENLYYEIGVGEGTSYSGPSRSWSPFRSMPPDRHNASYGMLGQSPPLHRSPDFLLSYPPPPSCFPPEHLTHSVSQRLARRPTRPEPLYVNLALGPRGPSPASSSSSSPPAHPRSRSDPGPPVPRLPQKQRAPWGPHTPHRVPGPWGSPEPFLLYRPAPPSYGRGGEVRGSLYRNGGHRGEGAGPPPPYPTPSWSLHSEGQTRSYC
Description: co-IP; anti-ARHGAP33 immunoprecipitates from hippocampal lysates of WT and ARHGAP33 KO mice; TNE buffer, antibody on ice 1 h, protein G-sepharose, five washes; immunoblot. (In western blotting, separated proteins are transferred to a membrane and probed.)

For experiment [2], the target named is sortilin (SORT1) (mouse (endogenous in hippocampus)) (UniProt Q6PHU5). Description: co-IP; anti-SORT1 immunoprecipitates from hippocampal lysates of WT and ARHGAP33 KO mice; TNE buffer, protein G-sepharose; immunoblot for TrkB.

Regarding “TrkC (from UniProt Q6VNS1 32-825) (receptor)”, the binding result in experiment [1] is on record as “no binding”.

“SorLA (from UniProt O88307 82-2215) (receptor)”: the binding result in experiment [1] was “no binding”. On to “TrkB (from UniProt P15209 32-821) (receptor)”, for which the binding entry in experiment [2] was “binds”. In the case of “sortilin (SORT1) (from UniProt Q6PHU5 74-825) (receptor)”, the binding result in experiment [1] is “binds”.
